Values from PubChem BioAssay AID504764 (Drosophila RNAi Screening Center, 2011)

Assay: 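Knock-downs that raise or lower a Notch target reporter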 (primary screen)
Cell system: Drosophila Kc167 cells
Knock-down reagent: long dsRNA against Drosophila genes
Duration: about 5 days (4 days dsRNA, then 24 h after transfection)
Challenge: transfection of constitutively active membrane-tethered Notch lacking the extracellular domain, read 24 h later
Detection: 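Light from a Notch-responsive E(spl)m3 luciferase reporter under active Notch, with control-promoter and no-Notch reporter wells to normalise; raw counts from paired wells a and b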
Reading the numbers: induced reporter light, run 1, well a and induced reporter light, run 1, well b: higher = more light from the Notch target reporter with active Notch; control promoter light, run 1, well a and control promoter light, run 1, well b: higher = more light from the viral control promoter (cell number, transfection, viability); uninduced reporter light, run 1, well a: higher = more light from the Notch target reporter without active Notch
Call rule: 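Hit if the duplicate-averaged log2 ratio of induced to control-promoter light gives a plate-wise z beyond ±2, or induced to uninduced beyond ±1.8; weak-control or discordant-duplicate wells dropped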
Meaning of the calls: active = modifier hit (raised or lowered Notch signal); inactive = not a hit
In all, the deposit lists about 22,000 reagents; below is a random part of those that have a named target and a result. Over the whole deposit, 403 (1.9%) were called active. 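Unnormalised raw counts per well; ratio z-scores behind the hit calls and whether each hit raises or lowers signal are not deposited.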 The record does not give: the amount of reagent.

gene | amplicon | induced reporter light, run 1, well a | induced reporter light, run 1, well b | control promoter light, run 1, well a | control promoter light, run 1, well b | uninduced reporter light, run 1, well a | Outcome
levy | DRSC04289 | 2.41e5 | 2.68e5 | 2.49e5 | 2.42e5 | 18620 | inactive
cav | DRSC15995 | 1.49e5 | 1.51e5 | 1.94e5 | 1.97e5 | 15905 | inactive
CG32579 | DRSC19872 | 93895 | 87795 | 1.09e5 | 92475 | 12715 | inactive
Lcp65Ae | DRSC11212 | 2.27e5 | 2.21e5 | 2.30e5 | 2.33e5 | 10230 | inactive
magu | DRSC06832 | 1.83e5 | 1.43e5 | 1.93e5 | 1.84e5 | 15738 | inactive
CG15404 | DRSC00418 | 1.47e5 | 1.15e5 | 1.54e5 | 1.58e5 | 8135 | inactive
Brd | DRSC09685 | 1.80e5 | 1.88e5 | 1.75e5 | 1.60e5 | 6905 | inactive
Rbcn-3A | DRSC18314 | 1.39e5 | 1.86e5 | 2.88e5 | 2.89e5 | 10460 | inactive
CG30156 | DRSC04959 | 68270 | 92235 | 1.19e5 | 1.43e5 | 4590 | inactive
SoYb | DRSC02901 | 75515 | 1.14e5 | 64835 | 85240 | 14625 | inactive
Fpgs1 | DRSC19857 | 1.19e5 | 1.08e5 | 1.75e5 | 1.87e5 | 7492 | inactive
NT1 | DRSC08530 | 1.54e5 | 1.51e5 | 1.57e5 | 1.43e5 | 5500 | inactive
NT1 | DRSC22895 | – | – | – | – | – | inactive
c12.2 | DRSC18751 | 1.07e5 | 1.06e5 | 1.70e5 | 1.72e5 | 7615 | inactive
aft | DRSC07576 | 1.23e5 | 1.14e5 | 2.07e5 | 2.05e5 | 9080 | inactive
Cks30A | DRSC03292 | 1.99e5 | 2.15e5 | 2.14e5 | 1.70e5 | 17605 | inactive
CG12826 | DRSC06175 | 1.74e5 | 1.74e5 | 1.94e5 | 1.87e5 | 12850 | inactive
CG31715 | DRSC21607 | – | – | – | – | – | inactive
atms | DRSC12310 | 1.47e5 | 1.62e5 | 91995 | 1.25e5 | 10630 | inactive
CG10339 | DRSC04065 | 1.18e5 | 1.16e5 | 1.46e5 | 1.26e5 | 9215 | inactive
Task7 | DRSC16477 | 46280 | 47935 | 49735 | 49965 | 3170 | inactive
CG33306 | DRSC01899 | 2.07e5 | 2.44e5 | 1.88e5 | 2.10e5 | 16300 | inactive
CG34281 | DRSC14807 | 2.45e5 | 2.39e5 | 3.03e5 | 3.08e5 | 23415 | inactive
CG15773 | DRSC18079 | 1.34e5 | 1.33e5 | 2.31e5 | 2.59e5 | 10225 | inactive
Wdr24 | DRSC14151 | 1.54e5 | 1.70e5 | 2.15e5 | 2.35e5 | 12560 | inactive
CG13601 | DRSC14604 | 50 | 100 | 245 | 760 | 50 | inactive
CG1138 | DRSC12530 | 90540 | 83980 | 80305 | 68625 | 6710 | inactive
CG14109 | DRSC10112 | 1.32e5 | 1.15e5 | 1.44e5 | 1.36e5 | 8025 | inactive
Lst | DRSC07146 | 43195 | 27265 | 43170 | 48085 | 3610 | inactive
CG1552 | DRSC19665 | 1.30e5 | 1.35e5 | 2.11e5 | 2.02e5 | 9710 | inactive
Mst89B | DRSC16748 | 2.01e5 | 1.80e5 | 2.00e5 | 2.21e5 | 17490 | inactive
kni | DRSC11891 | 83610 | 54200 | 50500 | 52005 | 5642 | inactive
Ccp84Aa | DRSC12586 | 48765 | 50420 | 35535 | 31405 | 2755 | inactive
Atg4b | DRSC15988 | 2.04e5 | 2.02e5 | 1.46e5 | 1.22e5 | 9570 | inactive

3 neighbouring records from above:
gene | amplicon | induced reporter light, run 1, well a | induced reporter light, run 1, well b | control promoter light, run 1, well a | control promoter light, run 1, well b | uninduced reporter light, run 1, well a | Outcome
Wdr24 | DRSC14151 | 1.54e5 | 1.70e5 | 2.15e5 | 2.35e5 | 12560 | inactive
CG13601 | DRSC14604 | 50 | 100 | 245 | 760 | 50 | inactive
CG1138 | DRSC12530 | 90540 | 83980 | 80305 | 68625 | 6710 | inactive
